Measurements published in patent US11883404B2, “Preparation and composition for treatment of malignant tumors” (TAIHO PHARMACEUTICAL CO., LTD., priority 2016, dated 2024).

Test system: human small cell lung cancer cell line DMS 114
Assay: Cell survival rate assay (CellTiter-Glo 2.0), IC50 and combination index of Compound 1 and Compound 2 (Example 15)
Assay type: cell-based
Conditions: each medicine alone, 72 hours
Description: A human small cell lung cancer cell line DMS 114 was cultured using a Waymouth's medium containing 10% fetal bovine serum. […] A human small cell lung cancer cell line DMS 114 is reported to have a FGFR1 amplification and AKT1 mutation (S266L, R249W).
Cell survival rate was measured using CellTiter-Glo 2.0 (produced by Promega Corp.). […] After incubation at 37° C. for 24 hours under 5% CO2, 25 μL of a medium containing Compound 1 and Compound 2 or a vehicle (DMSO) was added to each well. The concentration of Compound 1 was set to 9 concentrations of an approximately 3-fold dilution series with 10 μM as the highest final concentration. […] The cell survival rates in medicine addition were calculated as a ratio vs. the control group (100%) according to the following equation: Cell survival rate (%)=(Chemiluminescence intensity at the time of medicine addition)/(Chemiluminescence intensity of the control group)×100
Combinations of Compound 1 and Compound 2 concentrations that attained Fa=0.5 (corresponding to ED50), 0.75 (corresponding to ED75), or 0.9 (corresponding to ED90) were extracted on the basis of the Fa values in the DMS 114 cells calculated from the combined Compound 1 and Compound 2 concentrations, and applied to linear curve fitting using CalcuSyn (HULINKS Inc.) to obtain CI.

## C=CC(=O)N1CC[C@H](n2nc(C#Cc3cc(OC)cc(OC)c3)c3c(N)ncnc32)C1 [Compound 1, (S)-1-(3-(4-Amino-3-((3,5-dimethoxyphenyl)ethynyl)-1H-pyrazolo[3,4-d]pyrimidin-1-yl)pyrrolidin-1-yl)prop-2-en-1-one]
  IC50: 14.6 nM
